From US20120121508A1, “RADIOLABELED CGRP ANTAGONISTS” (Merck Sharp & Dohme Corp., priority 2009, published 2012)

Test system: CGRP receptor
Test: PET CGRP receptor occupancy study in rhesus monkey brain
Assay type: in vivo
Conditions: ±SE
Procedure: Baseline PET scans in rhesus monkey have confirmed the uptake and expected regional distribution of the PET tracer of [^11C]-Example 1 in the brain. […] In vivo occupancy studies were carried out with the compound of Example 1 to examine the utility of the PET tracer of [^11C]-Example 1 to establish a drug plasma level/CGRP receptor occupancy relationship. To establish steady plasma levels of drug, the compound of Example 1 was administered as an IV bolus plus constant infusion starting 60 minutes before the PET tracer of [^11C]-Example 1 injection; drug infusion was continued for the duration of the scan. Dynamic PET studies were acquired for 120-min following the PET tracer of [^11C]-Example 1 IV bolus administration. CGRP receptor availability was estimated using data-driven methods to describe the PET tracer of [^11C]-Example 1 plasma-brain kinetics. For each study, the PET tracer of [^11C]-Example 1 plasma concentration was obtained from the measurement of total radioactivity in arterial plasma with correction for the fraction of intact tracer as determined by HPLC analysis.
The absence of a reference region (devoid of CGRP receptor) requires the application of tracer kinetic modeling techniques using the PET tracer of [^11C]-Example 1 arterial plasma concentration in order to accurately quantify CGRP receptor occupancy in rhesus monkey. […]

Structure (SMILES): CN1C[C@@](C)(c2cc(F)cc(F)c2)N(CC(=O)Nc2ccc3c(c2)C[C@@]2(C3)C(=O)Nc3ncccc32)C(=O)C12CCCC2 [Example 1, 2-[(8R)-8-(3,5-Difluorophenyl)-6,8-dimethyl-10-oxo-6,9-diazaspiro[4.5]dec-9-yl]-N-[(2R)-2′-oxo-1,1′,2′,3-tetrahydrospiro[indene-2,3′-pyrrolo[2,3-b]pyridin]-5-yl]acetamide]
- Hill coefficient n of plasma level/occupancy relationship: 0.49±0.07
